# “And” between values parts separate entries of the source, which are not always exact repeats. Equal entries are not always repeated. Out of some 78,000 compounds screened, about 1,800 (2.3%) were called active. This list was built around the results that the source calls inconclusive (neither active nor inactive); the mix of calls is not that of the screen. Cut-off read from the data, not from the text of the source: active = inhibition above about 30%; inconclusive = mostly about 10% to 28%; inactive = weaker than that. Where a structure was tested more than once in an assay, its records may differ in their call.
# Sequences of proteins named here, by UniProt entry; tags and fusion partners are left off. A change or cut given only in a name is not applied to a line headed by its entry.
# UniProt Q01638: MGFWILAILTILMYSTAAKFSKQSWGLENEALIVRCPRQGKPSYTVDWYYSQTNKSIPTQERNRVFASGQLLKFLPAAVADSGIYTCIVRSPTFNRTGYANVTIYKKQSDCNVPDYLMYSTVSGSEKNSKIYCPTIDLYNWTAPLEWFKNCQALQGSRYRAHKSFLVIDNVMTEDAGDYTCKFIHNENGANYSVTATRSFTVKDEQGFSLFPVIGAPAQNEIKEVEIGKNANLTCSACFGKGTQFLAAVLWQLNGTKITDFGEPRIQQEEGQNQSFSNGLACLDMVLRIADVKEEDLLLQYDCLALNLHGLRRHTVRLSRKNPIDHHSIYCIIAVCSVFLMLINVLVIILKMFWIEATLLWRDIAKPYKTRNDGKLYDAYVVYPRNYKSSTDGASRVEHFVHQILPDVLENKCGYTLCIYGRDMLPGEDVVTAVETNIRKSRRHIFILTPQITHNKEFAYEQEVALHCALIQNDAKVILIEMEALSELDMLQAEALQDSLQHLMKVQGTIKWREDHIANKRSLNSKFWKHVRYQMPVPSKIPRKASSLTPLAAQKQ
# Target: Interleukin-1 receptor-like 1 (Homo sapiens) (UniProt Q01638)
# Assay: blocks human ST2 binding to IL-33, primary screen, biochemical, AlphaLISA (AID 1259354)
# Settings: AlphaLISA ST2-Fc/biotin-IL-33 interaction, 1 h; at 17 µM, stronger effect = higher value
row,SMILES,inhibition
1,CC1CCC23COC(=O)C2=CC(O)CC3C1(C)CCc1ccoc1 (configuration not stated),inconclusive: 12%
2,O=S(=O)(c1ccccc1)N1N=C(c2cccs2)CC1c1ccc(Br)cc1 (configuration not stated),inconclusive: 24% and inconclusive: 12%
3,O=C(Nc1ccccc1Br)c1ccc([N+](=O)[O-])cc1,inactive
4,COc1ccccc1Oc1ccc(C#N)c(C#N)c1,inconclusive: 13%
5,CSCC(=O)N1CCOC(CCc2ccccc2)C1 (configuration not stated),inactive
6,CN(Cc1cc2n(n1)CCNC2)Cc1n[nH]c2c1CCCCC2,inactive
7,CCCOc1ccc(-c2nc(OC)c3ccccc3n2)cc1,inactive
8,CN(Cc1cnc2c(-c3ccccc3)cnn2c1)Cc1n[nH]c2c1CCC2,inconclusive: 10%
9,Cc1cc(NC(c2cccc([N+](=O)[O-])c2)c2ccc3cccnc3c2O)no1 (configuration not stated),active: 33%
10,COCCN1CCCC(O)(CN2CCC(Cc3ccc(F)cc3)CC2)C1=O (configuration not stated),inactive
11,CNC(=O)[C@@H]1C[C@@H](N)CN1Cc1cc(C)n(-c2cc(C)ccn2)c1C,inconclusive: 11%
12,O=C(O)Cc1c[nH]c2ccc(O)cc12,active: 41%
13,CCC(C(=O)Nc1ccccc1C(N)=O)c1ccccc1 (configuration not stated),inactive
14,Cc1ccc(Nc2cc(C)nc(Nc3ccc(NC(=O)c4ccc(C)cc4)cc3)n2)cc1,inconclusive: 19%
15,Cn1cc(CNC(=O)COc2ccc(Cl)cc2Cl)cn1,inactive
16,CCOC(=O)c1c(C)[nH]c(C(=O)NC(C)c2cnn(-c3ccccc3C)c2C)c1C (configuration not stated),inactive
17,COC(=O)Cc1[nH]nc2c1C(C1C=CCCC1)C(C#N)=C(N)O2 (configuration not stated),inconclusive: 11%
18,CC(C)Cn1cc(C(=O)N(C)Cc2ccccc2)c2c3ccccc3n(C)c2c1=O,inconclusive: 13%
19,N#C/C(=C\c1ccco1)c1nc(-c2ccc(Cl)c(Cl)c2)cs1,inconclusive: 24%
20,CCO[C@H]1CN(C)C[C@@H]1NC(=O)c1cc(COc2cccc(F)c2)[nH]n1,inconclusive: 10%
21,COc1ccc(NC(=O)CC(=O)N2CCN(CCO)CC2)c(OC)c1,inactive
22,COc1ccc(NC(=O)c2cc(-c3ccc4c(c3)OCO4)on2)c(OC)c1,inconclusive: 16%
23,CCNC(=O)N1CCC[C@@H](O)[C@H](NC(=O)c2ccc(OCCOC)cc2)C1,inactive
24,COc1cccc(C2NC(=O)NC3=C2CCc2ccccc23)c1 (configuration not stated),inactive
25,CCOCCCNC(=O)c1cc(Sc2nnc(C)s2)nc2ccccc12,inconclusive: 11%

row,SMILES,inhibition
1,Cc1sc2nc(SCc3ccc(C(=O)NCCO)cc3)nc(N)c2c1C,inactive
2,CCOc1ccc(-n2c(SC(C)c3ccccc3)nc3c(c2=O)SCC3)cc1 (configuration not stated),inconclusive: 13%
3,COc1ccc(CC(=O)Nc2nc3c(s2)C[C@@H]2[C@](C)(CO)[C@H](O)CC[C@@]2(C)[C@@H]3CC(=O)N2CCN(C(C)=O)CC2)cc1,inconclusive: 11%
4,O=C(Nc1ccccc1-c1nc2ccccc2s1)c1cc(=O)c2ccccc2o1,inconclusive: 10%
5,CCC(C)N(Cc1cccnc1)C(=O)c1cncc(C)c1 (configuration not stated),inconclusive: 12%
6,Cc1cnccc1NCCNC(=O)C1CCOC1 (configuration not stated),inconclusive: 19%
7,CCCCn1c(C(C)NC(=O)C(C)(C)C)nc2ccccc21 (configuration not stated),inconclusive: 13%
8,O=C(O)C1C2CCC(C2)[C@H]1C(=O)Nc1cc(F)ccc1F (some centres not stated),inactive
9,Cc1ccc(-c2csc3ncnc(N4CCN(c5ccccn5)CC4)c23)cc1,inactive
10,COc1ccc(C(=O)N2CC[C@H](CO)[C@H](O)C2)c(C)c1,inactive
11,CCN(CC)c1ccc(/C=c2/sc3n(c2=O)CN(c2ccc([N+](=O)[O-])cc2)CN=3)cc1,inconclusive: 12%
12,O=C(COc1ccc2c(c1)CCCC2)NCCc1ccccc1,inactive
13,CNC(=O)COc1ccc(/C=C/c2ccccc2)cc1,inactive
14,CCCNc1ncc(CN2CCOC(Cc3cccc(F)c3)C2)cn1 (configuration not stated),inactive
15,CCCCOC(=O)C1=C(C)Nc2nnnn2C1c1ccc(F)cc1 (configuration not stated),inactive
16,Nc1cc(=O)[nH]c(SCC(=O)c2cccs2)n1,inactive
17,Cc1nc2c(C(=O)NCCc3ccccc3)c[nH]n2c(=O)c1Cc1ccc(Cl)cc1,inactive
18,CC1CC(Nc2ccccc2)c2ccccc2N1 (configuration not stated),inconclusive: 20%
19,Cc1nc2nc[nH]n2c(=O)c1NC(=O)NCc1ccccc1,inconclusive: 12%
20,Cc1cc(C)n(C)c(=O)c1C(=O)N1CCc2c(nc[nH]c2=O)C1,inactive
21,Cc1cccc(-c2nsc(SCC(N)=O)n2)c1,inconclusive: 11%
22,CCC(CO)N(Cc1ccco1)C(=O)c1cccnc1OC (configuration not stated),inconclusive: 13%
23,CCc1nnc(CNC(=O)CCc2scnc2C)s1,inconclusive: 14%
24,O=[N+]([O-])c1ccc(S(=O)(=O)NCC2CCCO2)cc1 (configuration not stated),inconclusive: 11%
25,Cc1ccc(CNC(=O)Cn2c(=O)n(-c3ccc(F)c(Cl)c3)c(=O)c3sccc32)cc1,inconclusive: 20%

# Ordered by length of the SMILES (ascending): part of the list above.
row,SMILES,inhibition
4,COc1ccccc1Oc1ccc(C#N)c(C#N)c1,inconclusive: 13%
14,CCCNc1ncc(CN2CCOC(Cc3cccc(F)c3)C2)cn1 (configuration not stated),inactive
10,COc1ccc(C(=O)N2CC[C@H](CO)[C@H](O)C2)c(C)c1,inactive
17,COC(=O)Cc1[nH]nc2c1C(C1C=CCCC1)C(C#N)=C(N)O2 (configuration not stated),inconclusive: 11%

# (further entries)

row,SMILES,inhibition
1,Cc1nnc([C@H]2CCN(Cc3ccccc3)C2)o1,inconclusive: 18%
2,CCC(CC)n1ncc(C)c1NC(=O)Cc1ccc(-n2nnnc2C)cc1,inconclusive: 11%
3,N#C/C(=C\c1ccc([N+](=O)[O-])cc1)c1nc2ccccc2[nH]1,inconclusive: 19%
4,Cc1ccc(N(C(=O)c2ccc(Cl)cc2)C2C=CS(=O)(=O)C2)cc1C (configuration not stated),inconclusive: 14%
5,CCCc1nc(NCc2csc(-c3ncccn3)n2)c2cnn(C)c2n1,inconclusive: 23%
6,O=[N+]([O-])c1cccc(S(=O)(=O)N2CCSC2c2ccccc2Cl)c1 (configuration not stated),inconclusive: 19%
7,CCc1ccc(S(=O)(=O)NCc2nc3cccnc3n2Cc2ccccc2)cc1,inconclusive: 16%
8,Nc1c(C(=O)NCCO)nnn1Cc1ccccc1,inactive
9,CCc1nc(Cn2nc(C3CCCNC3)n(-c3ccccc3)c2=O)cs1 (configuration not stated),inconclusive: 11%
10,COc1cc(/C=C2\N=C(SC)SC2=O)cc(OC)c1OC,active: 30%
11,CCOc1cc(C2Nc3ccccc3NC3=C2C(=O)CCC3)ccc1O (configuration not stated),inconclusive: 17%
12,COc1cc(C2Nc3ccccc3NC3=C2C(=O)CC(c2cccs2)C3)cc(OC)c1O (configuration not stated),inconclusive: 19%
13,N#CC1C(c2ccc3ccccc3n2)=CN(CC(=O)c2ccc([N+](=O)[O-])cc2)c2ccccc21 (configuration not stated),inconclusive: 13%
14,O=[N+]([O-])c1ccc(N=Cc2ccc(Br)c([N+](=O)[O-])c2)cc1,inconclusive: 23%
15,O=c1oc2ccccc2cc1-c1cn(-c2ccc(F)cc2)c(=O)[nH]1,inconclusive: 24%
16,Cc1cnc(SCCN2CCOCC2)nc1C1CCCN(C(=O)C2Cc3ccccc3O2)C1 (configuration not stated),inactive
17,CCCCN(CC)C(=O)Cn1c(=O)n(-c2ccccc2)c(=O)c2sccc21,inactive
18,O=C(Nc1cccc(-c2nc3ccccc3[nH]2)c1)c1cc(=O)c2ccccc2o1,inconclusive: 24%
19,O=c1[nH]c2ccc(N=Cc3ccc4ncccc4c3)cc2[nH]1,inconclusive: 12%
20,C1=C[C@H]2C[C@@H]1C[C@H]2CCn1ccnc1C1CC1,inconclusive: 25%
21,COc1ccc2nc3oc(C(=O)Nc4ccc(F)cc4)cc3cc2c1,inconclusive: 15%
22,COC(=O)c1ccc(C(=O)Nc2sc3c(c2C(=O)OC)CCN(C(C)C)C3)cc1,inconclusive: 11%
23,Cc1nc(CN(C)Cc2csc(-c3ccccc3)n2)co1,inactive
24,CN1CCCN(CC2CC3C=CC2C3)CC1 (configuration not stated),inconclusive: 11%
25,CC(C)Cn1cc(C(=O)N2CCN(c3ccccc3F)CC2)c2c3ccccc3n(C)c2c1=O,inactive

row,SMILES,inhibition
1,CCCc1ccc(OCC(=O)Nc2sc3c(c2C(N)=O)CCC3)cc1,inactive
2,CC(=O)C1=C(c2ccccc2)C(=O)c2ccccc2C1=O,active: 48%
3,COc1ccc(OCCCN2CCCC(C)C2)cc1 (configuration not stated),inconclusive: 10%
4,CCC(CO)N(Cc1ccc(F)cc1)Cc1c(C)nn(C)c1Cl (configuration not stated),inconclusive: 14%
5,CCCCNS(=O)(=O)c1cccc2cccnc12,inconclusive: 16%
6,COc1cccc(CC2CN(C(=O)c3cc4c(nc3OC)CCC4)CCO2)c1 (configuration not stated),inconclusive: 16%
7,Cn1c(=O)cc(SCC(=O)NC2CCCc3ccccc32)c2ccccc21 (configuration not stated),inactive
8,O=C(NCCc1ccc(Cl)cc1)c1cc(-c2ccncc2)nc2ccccc12,inconclusive: 22%
9,CCc1ccc(S(=O)(=O)N2CCN(c3nc(C)cc(Nc4ccc(C)cc4)n3)CC2)cc1,inactive
10,Cc1ccc(-n2ncc3c(N4CCCCCC4)ncnc32)c(C)c1,inactive
11,COc1cc2c(cc1OC)CN(C1CCCN(Cc3nc(C(C)C)cs3)C1)CC2 (configuration not stated),inactive
12,CC(=O)N1CCN(c2cc(-c3noc([C@@H]4CCCN4Cc4ccc(C(=O)O)cc4)n3)ccn2)CC1,inconclusive: 13%
13,Cc1cc(C)nc(SCCN2CCCC2)n1,inactive
14,Oc1ccc(-c2nnc(-c3ccc(O)cc3)nn2)cc1,inconclusive: 18%
15,Nc1ccc(Cc2ccc(N)c(O)c2)cc1O,inconclusive: 16%
16,N#CC1=C(N)OC2=C(C(=O)CCC2)C1c1cc([N+](=O)[O-])cs1 (configuration not stated),inconclusive: 14%
17,CCC(=O)N1c2ccccc2-c2nnc(SC)nc2OC1c1cc(OC)ccc1OC (configuration not stated),inconclusive: 12%
18,CC(C)NC(=O)[C@@H]1C[C@@H](N)CN1Cc1cc2ccccc2[nH]1,inconclusive: 16%
19,Cc1ccccc1SCC(=O)N1CCC2(CC1)c1ccccc1[C@@H](N)[C@@H]2O,inconclusive: 28%
20,O=C(Nc1ccc(Br)c2cccnc12)c1ccccc1Cl,inconclusive: 14%
21,N/C(Cc1ccc([N+](=O)[O-])cc1)=N/OC(=O)N1CCOCC1,inconclusive: 22%
22,O=C(O)COc1ccc(Cl)cc1C1C2=C(CCCC2=O)OC2=C1C(=O)CCC2,inconclusive: 16%
